At least one structure is not confirmed: it was looked up by name or label, or the drawing left a doubt.
How the values were obtained:
Type in all cases: in vivo
6-OHDA injected mice [1] = test: TH protein expression in 6-OHDA-treated striatum; details: 3 mg/kg, two-day pre-treatment
Experimental: (§1) Immunohistochemistry analysis using anti-tyrosine hydroxylase (TH) antibody was also performed to quantify 6-OHDA-induced neuronal loss in mice injected with 6-OHDA and non-injected (control) sides of the brain. […] FIG. 4B presents the mean and standard error of the mean (SEM) as well as statistical analysis of the results. […] This staining data was confirmed by staining for TH protein expression in the 6-OHDA-treated striatum.

6-OHDA injected mice [2] = test: Anti-TH immunohistochemistry, 6-OHDA-induced TH+ neuronal loss in SN; details: 10 mg/kg
Experimental: as §1

6-OHDA injected mice [3] = test: Anti-TH immunohistochemistry, 6-OHDA-induced striatal denervation; details: 10 mg/kg
Experimental: Immunohistochemistry analysis using anti-tyrosine hydroxylase (TH) antibody was performed in mouse midbrain sections to quantify 6-OHDA-induced striatal denervation in mice injected with 6-OHDA and non-injected (control) sides of the brain. […] In contrast, both the 6-OHDA/rapamycin-treated and the 6-OHDA/Formula I-treated sides of the brain show increased staining with the anti-TH antibody, as indicated by the dark shading in those figures. FIG. 3B presents the mean and standard error of the mean (SEM) of the integrated density of anti-TH antibody staining in the striatum, as well as statistical analysis of the results for the groups of mice.

## CO[C@H]1C[C@@H]2CC[C@@H](C)[C@@](O)(O2)C(=O)C(=O)N2CCCC[C@H]2C(=O)O[C@H]([C@H](C)C[C@@H]2CC[C@@H](O)[C@H](OC)C2)CC(=O)[C@H](C)/C=C(\C)[C@@H](O)[C@@H](OC)C(=O)[C@H](C)C[C@H](C)/C=C/C=C/C=C/1C [rapamycin, Rapamycin, reference compound]
6-OHDA injected mice [1]
  TH protein expression in 6-OHDA-treated striatum (FIGS. 4C-4F): non-statistically significant difference
6-OHDA injected mice [2]
  6-OHDA-induced neuronal loss vs vehicle control (TH-positive somas in SN, FIG. 4A): decreased 6-OHDA-induced neuronal loss as compared to vehicle control
6-OHDA injected mice [3]
  6-OHDA-induced striatal denervation vs vehicle control (TH integrated density, FIG. 3A): decreased 6-OHDA-induced denervation as compared to vehicle control

Reference: patent US20210030726A1 (MOUNT TAM THERAPEUTICS, INC., priority 2018, published 2021)
